Results: US20190351015A1
These are yes or no findings as the source states them, for the method shown. Binding seen in cells or lysates may run through a third protein. Some entries that bind do so weakly or less than the wild type.

Amino acid sequences for entries named in this document (tags omitted). A change or cut given only in a name is not applied to a line headed by its entry.
UniProt P25963: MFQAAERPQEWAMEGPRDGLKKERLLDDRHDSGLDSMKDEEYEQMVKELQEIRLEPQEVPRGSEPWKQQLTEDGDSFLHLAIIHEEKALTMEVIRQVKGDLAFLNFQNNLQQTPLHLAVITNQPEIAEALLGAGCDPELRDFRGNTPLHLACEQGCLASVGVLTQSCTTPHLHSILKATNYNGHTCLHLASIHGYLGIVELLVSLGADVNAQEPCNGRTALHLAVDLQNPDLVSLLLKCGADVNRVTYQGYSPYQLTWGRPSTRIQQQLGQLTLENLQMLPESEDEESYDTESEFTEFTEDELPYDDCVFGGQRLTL
UniProt P78367: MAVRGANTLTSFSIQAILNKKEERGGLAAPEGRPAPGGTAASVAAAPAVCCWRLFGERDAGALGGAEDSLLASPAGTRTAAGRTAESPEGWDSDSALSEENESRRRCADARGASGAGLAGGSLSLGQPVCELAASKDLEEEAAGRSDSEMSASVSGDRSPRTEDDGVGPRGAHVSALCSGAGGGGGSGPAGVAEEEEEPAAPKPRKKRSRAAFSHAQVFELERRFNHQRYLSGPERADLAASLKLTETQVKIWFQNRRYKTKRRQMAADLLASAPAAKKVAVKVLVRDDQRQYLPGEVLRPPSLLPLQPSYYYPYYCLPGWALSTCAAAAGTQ

Target: IκBα (Homo sapiens (Human)) (UniProt P25963)
Experiment: co-immunoprecipitation with anti-Myc antibody (Myc-tagged IκBα) from transfected 293T cells with MG132, western blot

binding, binds:
Nkx3.2 (130-320) (from UniProt P78367 130-320), Nkx3.2 (153-318) (from UniProt P78367 153-318), Nkx3.2 (112-320) (from UniProt P78367 112-320), Nkx3.2 (1-333) (from UniProt P78367 1-333), Nkx3.2 (150-320) (from UniProt P78367 150-320), Nkx3.2 (123-320) (from UniProt P78367 123-320)
